Some of these results come from one statement about several compounds together. At least one structure is not confirmed: it was looked up by name or label, or the drawing left a doubt.
Assay: In vitro bovine teeth test (stain prevention solutions)
Details: % by weight of solution
Experimental: HAD assay and the bovine teeth test were employed by methods generally known in the art for screening stain prevention actives. HAD assays generally included pre-coating a HAD disc with saliva for 1-2 hours and subsequently exposing the disc to a staining broth containing tea, coffee, gastric mucin, trypticase soy broth and saliva for four days. Each day, the disc was moved from staining broth to a solution with a stain prevention formulation three times. The process was repeated for four days. The disc was dried and the color was measured. […] The color of the bovine teeth was measured before and after staining.
To evaluate stain prevention effect, the whitening index of the teeth before and after staining and treatment was calculated. The white index, W, is defined as:
W*=√{square root over ((L*−1.00)^2+(a*)^2+(b*)^2)}
A pure white substance will have W value of […]. The higher the value of ΔW, the whiter the sample would be.
In total, 4-6 HA discs or bovine teeth were tested for each compound or combination. The values were averaged.

Structure (SMILES): NC(N)=O [Urea, urea]
- concentration showing a significant visible whitening effect: ≥ 0.5%

From US20190289874A1, “STAIN PREVENTION FORMULATIONS” (WM. WRIGLEY JR. COMPANY, priority 2016, published 2019)
